Data as given in patent US20110136237.
The exact form of at least one protein or probe is not confirmed. Negatives hold for the conditions tested. For part of these data: Tags and fusion partners may be left off the protein sequences shown.

How the values were obtained:
Experiment in all cases: activity in cells
[1] = system: T1, U153 recombinase (Listeria monocytogenes bacteriophage U153); details: excision not detected, S. pombe, attP/attB pair, protein in cells
T1 sequence (limits assumed): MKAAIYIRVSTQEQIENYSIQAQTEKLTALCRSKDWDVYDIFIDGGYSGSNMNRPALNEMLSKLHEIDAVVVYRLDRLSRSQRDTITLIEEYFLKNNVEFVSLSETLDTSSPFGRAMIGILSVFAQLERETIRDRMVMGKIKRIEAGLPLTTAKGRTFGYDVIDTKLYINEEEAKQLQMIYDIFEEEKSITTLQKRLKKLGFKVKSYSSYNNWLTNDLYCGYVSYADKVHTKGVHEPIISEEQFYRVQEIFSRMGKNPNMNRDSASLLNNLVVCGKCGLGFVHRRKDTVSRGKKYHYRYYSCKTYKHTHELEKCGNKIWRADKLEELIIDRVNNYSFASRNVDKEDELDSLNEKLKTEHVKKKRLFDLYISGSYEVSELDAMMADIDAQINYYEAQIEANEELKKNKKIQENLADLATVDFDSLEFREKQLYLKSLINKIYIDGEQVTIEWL

[2] = molecular target: phiC31 integrase (Streptomyces bacteriophage phiC31) (UniProt Q9T221); details: excision not detected, S. pombe, attP/attB pair, protein in cells
[3] = system: T2, TP901-1 recombinase (Lactococcus lactis bacteriophage TP901-1); details: excision not detected, S. pombe, attP/attB pair; protein in cells; only the site is given
T2 sequence (limits assumed): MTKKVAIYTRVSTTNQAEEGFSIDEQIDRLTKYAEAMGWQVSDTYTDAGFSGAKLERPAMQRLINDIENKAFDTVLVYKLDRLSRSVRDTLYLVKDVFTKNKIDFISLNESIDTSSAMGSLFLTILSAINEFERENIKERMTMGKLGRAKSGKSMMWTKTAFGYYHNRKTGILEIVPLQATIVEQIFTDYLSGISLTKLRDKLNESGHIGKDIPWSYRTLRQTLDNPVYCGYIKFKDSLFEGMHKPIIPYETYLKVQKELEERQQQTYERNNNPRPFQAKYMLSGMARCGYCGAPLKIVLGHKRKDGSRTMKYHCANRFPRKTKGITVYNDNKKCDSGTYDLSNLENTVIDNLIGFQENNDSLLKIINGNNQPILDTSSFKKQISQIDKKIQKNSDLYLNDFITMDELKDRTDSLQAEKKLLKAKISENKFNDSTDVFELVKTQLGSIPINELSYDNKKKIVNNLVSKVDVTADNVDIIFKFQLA

[4] = molecular target: T3, Tn1721 resolvase (transposon Tn1721, Escherichia coli) (UniProt P0C1G2); details: excision not detected, S. pombe; protein in cells
T3 sequence (limits assumed): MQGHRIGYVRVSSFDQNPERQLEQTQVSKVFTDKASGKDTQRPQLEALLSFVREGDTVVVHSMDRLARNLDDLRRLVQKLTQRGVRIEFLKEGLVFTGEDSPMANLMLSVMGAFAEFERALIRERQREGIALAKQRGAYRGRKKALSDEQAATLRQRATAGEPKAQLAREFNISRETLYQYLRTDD

[5] = system: T4, CinH recombinase (Acinetobacter sp. ED45-25 plasmid); details: excision not detected, S. pombe; protein in cells
T4 sequence (limits assumed): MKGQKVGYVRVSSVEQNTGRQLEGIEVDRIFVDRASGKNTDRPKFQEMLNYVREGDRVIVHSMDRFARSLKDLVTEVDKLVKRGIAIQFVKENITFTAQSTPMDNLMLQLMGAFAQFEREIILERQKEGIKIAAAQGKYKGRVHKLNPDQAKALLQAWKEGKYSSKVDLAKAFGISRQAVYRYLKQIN

[6] = system: T5, ParA recombinase (plasmids RK2/RP4); details: excision not detected, S. pombe; protein in cells
T5 sequence (limits assumed): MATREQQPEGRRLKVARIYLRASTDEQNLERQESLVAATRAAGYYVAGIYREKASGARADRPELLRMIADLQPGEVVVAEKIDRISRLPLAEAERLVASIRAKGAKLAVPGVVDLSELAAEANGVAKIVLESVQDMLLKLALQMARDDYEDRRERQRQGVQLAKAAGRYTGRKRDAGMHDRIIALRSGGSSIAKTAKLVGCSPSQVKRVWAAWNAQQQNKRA

[7] = system: Bxb1 recombinase (Mycobacterium smegmatis bacteriophage Bxb1); details: excision not detected, S. pombe, attP/attB pair, protein in cells
[8] = system: T6, Tn5053 resolvase (transposon Tn5053, Xanthomonas sp. W17); details: excision not detected, S. pombe; protein in cells
T6 sequence: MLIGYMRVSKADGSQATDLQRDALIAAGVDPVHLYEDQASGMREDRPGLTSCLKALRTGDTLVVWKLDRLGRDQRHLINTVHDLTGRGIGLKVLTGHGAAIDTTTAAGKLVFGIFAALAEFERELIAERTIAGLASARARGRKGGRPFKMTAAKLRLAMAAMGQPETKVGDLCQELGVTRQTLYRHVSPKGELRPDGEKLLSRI

Measured: activity on this sequence

CAGTGGTTTGTCTGGTCAACCACCGCGGTCTCAGTGGTGTACGGTACAAACCC (double strand) [Bxb1 attP]
not active: [1]; only the site is given | [2]; only the site is given | [3]

CTGTCACATATACGTTCGATTATGTGACAGTGTGAGCCAGAAAGTTCTCGCCGTCAAAAACTGTCACTTAACCCGTCATTTAGTCTAAGACCTGCAAACGGCCATTCAGGCTCGTAATGTGACAAAAACTCCGGCGGGATGCCCTCCTTGGTGAACGTGGCGCGCAAACGTTCCAGGGATTCGGGGTCG (double strand) [Tn5053 res site]
not active: [4] | [5] | [6]

AACTTTTTCGGATCAAGCTATGAAGGACGCAAAGAGGGAACTAAACACTTG (double strand) [U153 attB]
not active: [7]; only the site is given | [2]; only the site is given | [3]

TCAAATTGGGTATACCCATTTGGGCCTAGTCTAGCCGGCATGGCGCATTACAGCAATACGCAATTTAAATGCGCCTAGCGCATTTTCCCGACCTTAATGCGCCTCGCGCTGTAGCCTCACGCCCACATATGAG (double strand) [ParA MRS site]
not active: [4] | [8] | [5]

TCCAACTCGCTTAATTGCGAGTTTTTATTTCGTTTATTTCAATTAAGGTAACTAAAAAACTCCTT (double strand) [TP901-1 attP]
not active: [1] | [7] | [2]

CGTTACTTTGGGGTATACCCTAAAGTTACAATATAAAAGTTCTTAAAACTATGTAACATTTAAATGATTTTTAACCATATATAACATGTAACTTTGATATTTAAGATTTATAATTTACG (double strand) [CinH RS2 site]
not active: [4] | [8] | [6]

TTGTTTAGTTCCTCGTTTTCTCTCGTTGGACGGAAACGAATCGAGAAACTAAAATTA (double strand) [U153 attP]
not active: [7]; only the site is given | [2]; only the site is given | [3]

CCGGCTTGTCGACGACGGCGGTCTCCGTCGTCAGGATCATCC (double strand) [Bxb1 attB]
not active: [1]; only the site is given | [2]; only the site is given | [3]

ATGCCAACACAATTAACATCTCAATCAAGGTAAATGCTTTTTGCTTTTTTTGCGACGTC (double strand) [TP901-1 attB]
not active: [1]; only the site is given | [7]; only the site is given | [2]; only the site is given

TGTCAATCTAGGCTATACCCTAACTTGATGTCAGGCAGGGCCGCGCCGCTTCGTCAGAATAGAGTCTGCTTTCCCATTTTTTGACACATGCCCGCGAAGGTTATAGATTTCAGCCTGACA (double strand) [Tn1721 res site]
not active: [8] | [5] | [6]
